In PMC8704797:
These are yes or no findings as the source states them, for the method shown. Binding can be weak; no strength is given.

Target: TaPUB2 fused to the GAL4 DNA-binding domain (BD) in pGBKT7 (Triticum aestivum (wheat))
Test: two-hybrid; Matchmaker GAL4 system, AH109 yeast; co-transformants grown on DDO (SD/-Leu/-Trp), spotted on QDO/X (SD/-Leu/-Trp/-His/-Ade/X-a-gal)

Substance: TaPUB3 fused to the GAL4 activation domain (AD) in pGADT7 (from UniProt A0A3B6CDH9)
- binding: binds
